Differences between knockout arms are mostly noise.
Tested on: HCC-38
Assay: relative cell number vs DMSO control (72 h) (% of DMSO); higher = less growth inhibition (more cells)
Experimental: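 QMAP-Seq: a pool of 5 breast cancer cell lines (ZR-75-1, SKBR3, HCC-38, MDA-MB-231, BT-20), each carrying 12 doxycycline-inducible Cas9 sgRNA perturbations (11 knockouts plus non-targeting sgNT), was treated with compounds for 72 h at four 10-fold doses (10 nM-10 uM or 1 nM-1 uM range). Barcodes were amplified and sequenced, and cell number was interpolated from 293T spike-in standard curves. The result is expressed as % of the median of DMSO wells. Two biological replicates.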

OCCn1cc(-c2ccc3c(c2)CC/C3=N\O)c(-c2ccncc2)n1 [GDC0879]
Conditions	relative cell number
sgRNA knockout: sgATF3, 10 nM	107
sgRNA knockout: sgATF3, 100 nM	111
sgRNA knockout: sgATF3, 1000 nM	137
sgRNA knockout: sgATF3, 10000 nM	112
sgRNA knockout: sgATF4, 10 nM	97.7
sgRNA knockout: sgATF4, 100 nM	113.9
sgRNA knockout: sgATF4, 1000 nM	136
sgRNA knockout: sgATF4, 10000 nM	107
sgRNA knockout: sgATF6, 10 nM	112
sgRNA knockout: sgATF6, 100 nM	116
sgRNA knockout: sgATF6, 1000 nM	153
sgRNA knockout: sgATF6, 10000 nM	119
sgRNA knockout: sgATG7, 10 nM	111
sgRNA knockout: sgATG7, 100 nM	117.15
sgRNA knockout: sgATG7, 1000 nM	131
sgRNA knockout: sgATG7, 10000 nM	105
sgRNA knockout: sgERN1, 10 nM	105
sgRNA knockout: sgERN1, 100 nM	127
sgRNA knockout: sgERN1, 1000 nM	122
sgRNA knockout: sgERN1, 10000 nM	110
sgRNA knockout: sgHSF1, 10 nM	105
sgRNA knockout: sgHSF1, 100 nM	124
sgRNA knockout: sgHSF1, 1000 nM	129
sgRNA knockout: sgHSF1, 10000 nM	123
sgRNA knockout: sgHSF2, 10 nM	114
sgRNA knockout: sgHSF2, 100 nM	124
sgRNA knockout: sgHSF2, 1000 nM	135
sgRNA knockout: sgHSF2, 10000 nM	125
sgRNA knockout: sgKEAP1, 10 nM	106
sgRNA knockout: sgKEAP1, 100 nM	119
sgRNA knockout: sgKEAP1, 1000 nM	148
sgRNA knockout: sgKEAP1, 10000 nM	130
sgRNA knockout: sgNFE2L2, 10 nM	101
sgRNA knockout: sgNFE2L2, 100 nM	114.66
sgRNA knockout: sgNFE2L2, 1000 nM	135
sgRNA knockout: sgNFE2L2, 10000 nM	100
sgRNA knockout: sgSLC35F2, 10 nM	112
sgRNA knockout: sgSLC35F2, 100 nM	122
sgRNA knockout: sgSLC35F2, 1000 nM	131
sgRNA knockout: sgSLC35F2, 10000 nM	112
sgRNA knockout: sgXBP1, 10 nM	108
sgRNA knockout: sgXBP1, 100 nM	117
sgRNA knockout: sgXBP1, 1000 nM	130
sgRNA knockout: sgXBP1, 10000 nM	110

C[C@@H]1CN(CC(=O)Nc2ccc3c(c2)Cc2cccc(-c4cc(=O)cc(N5CCOCC5)o4)c2S3)C[C@H](C)O1
Conditions	relative cell number
sgRNA knockout: sgATF3, 10 nM	94.589
sgRNA knockout: sgATF3, 100 nM	116
sgRNA knockout: sgATF3, 1000 nM	85
sgRNA knockout: sgATF3, 10000 nM	59.2
sgRNA knockout: sgATF4, 10 nM	89.4
sgRNA knockout: sgATF4, 100 nM	109
sgRNA knockout: sgATF4, 1000 nM	77.68
sgRNA knockout: sgATF4, 10000 nM	70.5
sgRNA knockout: sgATF6, 10 nM	97.2
sgRNA knockout: sgATF6, 100 nM	106
sgRNA knockout: sgATF6, 1000 nM	93.3
sgRNA knockout: sgATF6, 10000 nM	57.3
sgRNA knockout: sgATG7, 10 nM	91.6
sgRNA knockout: sgATG7, 100 nM	112
sgRNA knockout: sgATG7, 1000 nM	76.3
sgRNA knockout: sgATG7, 10000 nM	69.9
sgRNA knockout: sgERN1, 10 nM	89.1
sgRNA knockout: sgERN1, 100 nM	102
sgRNA knockout: sgERN1, 1000 nM	89
sgRNA knockout: sgERN1, 10000 nM	56.26
sgRNA knockout: sgHSF1, 10 nM	110
sgRNA knockout: sgHSF1, 100 nM	88.2
sgRNA knockout: sgHSF1, 1000 nM	87.2
sgRNA knockout: sgHSF1, 10000 nM	48.9
sgRNA knockout: sgHSF2, 10 nM	100
sgRNA knockout: sgHSF2, 100 nM	104
sgRNA knockout: sgHSF2, 1000 nM	88.98
sgRNA knockout: sgHSF2, 10000 nM	62.1
sgRNA knockout: sgKEAP1, 10 nM	97.4
sgRNA knockout: sgKEAP1, 100 nM	99.3
sgRNA knockout: sgKEAP1, 1000 nM	108
sgRNA knockout: sgKEAP1, 10000 nM	47.3
sgRNA knockout: sgNFE2L2, 10 nM	98.7
sgRNA knockout: sgNFE2L2, 100 nM	110
sgRNA knockout: sgNFE2L2, 1000 nM	70.5
sgRNA knockout: sgNFE2L2, 10000 nM	67.5
sgRNA knockout: sgSLC35F2, 10 nM	94.9
sgRNA knockout: sgSLC35F2, 100 nM	106
sgRNA knockout: sgSLC35F2, 1000 nM	81.6
sgRNA knockout: sgSLC35F2, 10000 nM	63.5
sgRNA knockout: sgXBP1, 10 nM	100
sgRNA knockout: sgXBP1, 100 nM	112
sgRNA knockout: sgXBP1, 1000 nM	78.1
sgRNA knockout: sgXBP1, 10000 nM	69.9

Cc1cc2c(F)c(Oc3ncnn4cc(OC[C@@H](C)O)c(C)c34)ccc2[nH]1 [Brivanib]
Conditions	relative cell number
sgRNA knockout: sgATF3, 10 nM	102
sgRNA knockout: sgATF3, 100 nM	83.9
sgRNA knockout: sgATF3, 1000 nM	94.1
sgRNA knockout: sgATF3, 10000 nM	82.3
sgRNA knockout: sgATF4, 10 nM	96.8
sgRNA knockout: sgATF4, 100 nM	94.2
sgRNA knockout: sgATF4, 1000 nM	92.5
sgRNA knockout: sgATF4, 10000 nM	77.6
sgRNA knockout: sgATF6, 10 nM	101
sgRNA knockout: sgATF6, 100 nM	91.3
sgRNA knockout: sgATF6, 1000 nM	101
sgRNA knockout: sgATF6, 10000 nM	78.8
sgRNA knockout: sgATG7, 10 nM	91.9
sgRNA knockout: sgATG7, 100 nM	92.1
sgRNA knockout: sgATG7, 1000 nM	99.2
sgRNA knockout: sgATG7, 10000 nM	80.4
sgRNA knockout: sgERN1, 10 nM	92.1
sgRNA knockout: sgERN1, 100 nM	81.4
sgRNA knockout: sgERN1, 1000 nM	92.7
sgRNA knockout: sgERN1, 10000 nM	78.3
sgRNA knockout: sgHSF1, 10 nM	97.7
sgRNA knockout: sgHSF1, 100 nM	94.3
sgRNA knockout: sgHSF1, 1000 nM	105
sgRNA knockout: sgHSF1, 10000 nM	73
sgRNA knockout: sgHSF2, 10 nM	103
sgRNA knockout: sgHSF2, 100 nM	96
sgRNA knockout: sgHSF2, 1000 nM	90.8
sgRNA knockout: sgHSF2, 10000 nM	80.1
sgRNA knockout: sgKEAP1, 10 nM	105
sgRNA knockout: sgKEAP1, 100 nM	96
sgRNA knockout: sgKEAP1, 1000 nM	93.6
sgRNA knockout: sgKEAP1, 10000 nM	83
sgRNA knockout: sgNFE2L2, 10 nM	95.4
sgRNA knockout: sgNFE2L2, 100 nM	95.8
sgRNA knockout: sgNFE2L2, 1000 nM	98.8
sgRNA knockout: sgNFE2L2, 10000 nM	77.7
sgRNA knockout: sgSLC35F2, 10 nM	96.8
sgRNA knockout: sgSLC35F2, 100 nM	84.7
sgRNA knockout: sgSLC35F2, 1000 nM	88.7
sgRNA knockout: sgSLC35F2, 10000 nM	76.6
sgRNA knockout: sgXBP1, 10 nM	96.1
sgRNA knockout: sgXBP1, 100 nM	86.9
sgRNA knockout: sgXBP1, 1000 nM	88.8
sgRNA knockout: sgXBP1, 10000 nM	83.5

O=C(O)CC[C@H]1CC[C@@](c2cc(F)ccc2F)(S(=O)(=O)c2ccc(Cl)cc2)CC1 [MK0752]
Conditions	relative cell number
sgRNA knockout: sgATF3, 10 nM	134
sgRNA knockout: sgATF3, 100 nM	122
sgRNA knockout: sgATF3, 1000 nM	116
sgRNA knockout: sgATF3, 10000 nM	125
sgRNA knockout: sgATF4, 10 nM	129
sgRNA knockout: sgATF4, 100 nM	115
sgRNA knockout: sgATF4, 1000 nM	102
sgRNA knockout: sgATF4, 10000 nM	111
sgRNA knockout: sgATF6, 10 nM	145
sgRNA knockout: sgATF6, 100 nM	123
sgRNA knockout: sgATF6, 1000 nM	140.7
sgRNA knockout: sgATF6, 10000 nM	130
sgRNA knockout: sgATG7, 10 nM	134
sgRNA knockout: sgATG7, 100 nM	115
sgRNA knockout: sgATG7, 1000 nM	111.6
sgRNA knockout: sgATG7, 10000 nM	111
sgRNA knockout: sgERN1, 10 nM	130
sgRNA knockout: sgERN1, 100 nM	119
sgRNA knockout: sgERN1, 1000 nM	119
sgRNA knockout: sgERN1, 10000 nM	132
sgRNA knockout: sgHSF1, 10 nM	165
sgRNA knockout: sgHSF1, 100 nM	140
sgRNA knockout: sgHSF1, 1000 nM	132
sgRNA knockout: sgHSF1, 10000 nM	141
sgRNA knockout: sgHSF2, 10 nM	156
sgRNA knockout: sgHSF2, 100 nM	117
sgRNA knockout: sgHSF2, 1000 nM	129
sgRNA knockout: sgHSF2, 10000 nM	134
sgRNA knockout: sgKEAP1, 10 nM	178
sgRNA knockout: sgKEAP1, 100 nM	128
sgRNA knockout: sgKEAP1, 1000 nM	139
sgRNA knockout: sgKEAP1, 10000 nM	151
sgRNA knockout: sgNFE2L2, 10 nM	129
sgRNA knockout: sgNFE2L2, 100 nM	110
sgRNA knockout: sgNFE2L2, 1000 nM	112
sgRNA knockout: sgNFE2L2, 10000 nM	117
sgRNA knockout: sgSLC35F2, 10 nM	142
sgRNA knockout: sgSLC35F2, 100 nM	123
sgRNA knockout: sgSLC35F2, 1000 nM	113
sgRNA knockout: sgSLC35F2, 10000 nM	116
sgRNA knockout: sgXBP1, 10 nM	140
sgRNA knockout: sgXBP1, 100 nM	121
sgRNA knockout: sgXBP1, 1000 nM	119
sgRNA knockout: sgXBP1, 10000 nM	122

— the supplement of paper PMC7661543
